This is one part of the list.
Assays:
Test in all cases: log2 fold change, soluble protein after heating vs DMSO (PISA); higher = thermal stabilisation; K562 cells, 10 uM, 30 min; active = over 0.2 and 3.5 SD of the protein, either way, in both replicates (recomputed)
[1] = compound: C1=CC=C(C=C1)[C@H](COC2=CC3=C(C=C2)NC(=O)N3)NC(=O)C4=CC=CN(C4=O)CC5=CC(=C(C=C5)F)F
Outline: (§1)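 For each measurement, 10 μM compound was applied for 30 min to K562 cells at 2×10^6 cells/mL. Aliquots were heated for 3 min across 48°C-58°C, pooled, and extracted in PBS with 0.5% NP-40 at 4°C; the supernatant after 21,000xg for 90 min was soluble protein. This was quantified by TMTpro 16plex LC-MS/MS with channel sums equalised, and thermal stability was reported relative to control samples from duplicates, on a log2 fold-change scale.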

Amino acid sequences for entries named in this document (tags omitted). A change or cut given only in a name is not applied to a line headed by its entry.
UniProt Q96FJ2, whole entry, looked up: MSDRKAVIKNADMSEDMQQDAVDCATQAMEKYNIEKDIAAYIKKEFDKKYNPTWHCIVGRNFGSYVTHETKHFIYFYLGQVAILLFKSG
UniProt O75521: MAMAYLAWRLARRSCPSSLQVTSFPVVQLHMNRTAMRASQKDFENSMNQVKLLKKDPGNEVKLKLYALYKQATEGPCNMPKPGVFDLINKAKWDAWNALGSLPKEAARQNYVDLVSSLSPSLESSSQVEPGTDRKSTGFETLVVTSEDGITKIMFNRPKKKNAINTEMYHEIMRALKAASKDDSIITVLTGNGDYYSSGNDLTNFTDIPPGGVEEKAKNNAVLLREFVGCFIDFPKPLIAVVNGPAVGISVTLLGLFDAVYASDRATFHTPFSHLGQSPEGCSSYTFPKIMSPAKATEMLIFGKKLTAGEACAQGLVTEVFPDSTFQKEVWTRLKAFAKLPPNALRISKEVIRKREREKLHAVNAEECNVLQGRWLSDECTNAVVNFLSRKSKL
UniProt Q8WWZ3: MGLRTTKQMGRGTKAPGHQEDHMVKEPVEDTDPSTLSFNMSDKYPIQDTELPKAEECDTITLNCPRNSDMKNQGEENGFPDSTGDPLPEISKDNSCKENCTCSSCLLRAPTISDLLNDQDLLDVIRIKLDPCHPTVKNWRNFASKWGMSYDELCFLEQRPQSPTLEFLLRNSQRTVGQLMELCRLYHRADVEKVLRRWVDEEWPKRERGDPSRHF
UniProt O95905: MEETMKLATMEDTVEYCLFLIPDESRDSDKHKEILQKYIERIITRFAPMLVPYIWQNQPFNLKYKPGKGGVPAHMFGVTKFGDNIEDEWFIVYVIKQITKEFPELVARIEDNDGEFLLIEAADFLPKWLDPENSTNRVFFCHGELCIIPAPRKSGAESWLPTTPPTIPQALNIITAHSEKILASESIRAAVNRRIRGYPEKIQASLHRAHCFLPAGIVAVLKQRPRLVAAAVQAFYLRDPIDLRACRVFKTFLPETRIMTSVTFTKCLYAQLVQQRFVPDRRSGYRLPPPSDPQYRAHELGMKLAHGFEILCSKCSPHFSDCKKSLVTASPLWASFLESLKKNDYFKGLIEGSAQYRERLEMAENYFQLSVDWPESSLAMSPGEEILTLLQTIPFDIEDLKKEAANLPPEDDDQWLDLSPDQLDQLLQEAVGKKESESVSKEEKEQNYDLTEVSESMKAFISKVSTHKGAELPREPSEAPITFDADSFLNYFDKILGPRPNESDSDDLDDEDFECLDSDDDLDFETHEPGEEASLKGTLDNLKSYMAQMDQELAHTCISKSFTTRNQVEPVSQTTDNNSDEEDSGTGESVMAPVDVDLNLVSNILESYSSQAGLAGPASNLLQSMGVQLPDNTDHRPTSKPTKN
UniProt Q9NVH1: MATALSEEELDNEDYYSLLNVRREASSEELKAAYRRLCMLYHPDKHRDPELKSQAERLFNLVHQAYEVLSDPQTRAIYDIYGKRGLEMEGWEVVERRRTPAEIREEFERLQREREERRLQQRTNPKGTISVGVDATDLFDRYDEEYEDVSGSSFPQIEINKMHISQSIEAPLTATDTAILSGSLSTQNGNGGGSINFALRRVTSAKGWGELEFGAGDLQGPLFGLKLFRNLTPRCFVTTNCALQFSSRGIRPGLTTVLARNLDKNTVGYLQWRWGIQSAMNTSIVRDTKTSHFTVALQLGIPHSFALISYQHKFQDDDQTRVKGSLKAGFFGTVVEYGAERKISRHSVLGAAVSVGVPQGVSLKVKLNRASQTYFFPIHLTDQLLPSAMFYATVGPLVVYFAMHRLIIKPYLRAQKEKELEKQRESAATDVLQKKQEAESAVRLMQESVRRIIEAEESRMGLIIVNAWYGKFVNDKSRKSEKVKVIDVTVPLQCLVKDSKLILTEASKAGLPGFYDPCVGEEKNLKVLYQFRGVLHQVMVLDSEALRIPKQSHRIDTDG
UniProt Q13217: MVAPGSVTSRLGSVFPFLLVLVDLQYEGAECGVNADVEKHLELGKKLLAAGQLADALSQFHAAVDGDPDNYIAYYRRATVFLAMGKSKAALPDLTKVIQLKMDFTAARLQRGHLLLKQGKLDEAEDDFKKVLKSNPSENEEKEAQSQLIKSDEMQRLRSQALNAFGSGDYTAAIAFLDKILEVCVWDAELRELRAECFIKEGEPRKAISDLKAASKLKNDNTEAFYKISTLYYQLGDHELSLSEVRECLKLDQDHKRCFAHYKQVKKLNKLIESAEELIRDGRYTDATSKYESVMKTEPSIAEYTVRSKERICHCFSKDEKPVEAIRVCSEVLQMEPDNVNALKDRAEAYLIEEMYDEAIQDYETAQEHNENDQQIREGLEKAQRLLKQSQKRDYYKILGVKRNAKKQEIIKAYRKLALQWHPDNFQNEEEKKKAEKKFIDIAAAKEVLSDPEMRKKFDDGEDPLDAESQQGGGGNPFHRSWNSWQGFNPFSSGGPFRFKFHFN
UniProt Q99615: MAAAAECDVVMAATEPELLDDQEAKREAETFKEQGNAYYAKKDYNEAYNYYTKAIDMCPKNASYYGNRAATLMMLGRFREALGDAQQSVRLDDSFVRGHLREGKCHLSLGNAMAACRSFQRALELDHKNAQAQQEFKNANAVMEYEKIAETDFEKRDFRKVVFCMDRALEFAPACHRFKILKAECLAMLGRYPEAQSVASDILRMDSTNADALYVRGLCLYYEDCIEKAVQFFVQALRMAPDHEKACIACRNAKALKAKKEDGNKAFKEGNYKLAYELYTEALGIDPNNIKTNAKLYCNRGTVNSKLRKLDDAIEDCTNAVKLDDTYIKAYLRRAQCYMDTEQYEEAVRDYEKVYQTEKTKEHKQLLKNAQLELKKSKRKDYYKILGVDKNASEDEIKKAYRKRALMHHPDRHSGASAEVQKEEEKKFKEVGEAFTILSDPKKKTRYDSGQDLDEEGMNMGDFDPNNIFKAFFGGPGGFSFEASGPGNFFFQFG
UniProt Q9H2P9: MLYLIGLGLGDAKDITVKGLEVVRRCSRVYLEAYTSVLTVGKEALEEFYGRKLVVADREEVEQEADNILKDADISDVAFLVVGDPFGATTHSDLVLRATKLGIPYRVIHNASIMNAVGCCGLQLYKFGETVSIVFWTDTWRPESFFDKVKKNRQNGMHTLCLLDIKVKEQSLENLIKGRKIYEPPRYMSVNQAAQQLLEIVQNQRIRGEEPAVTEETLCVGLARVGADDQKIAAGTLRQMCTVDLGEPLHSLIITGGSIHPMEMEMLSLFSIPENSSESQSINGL
UniProt Q5QJE6: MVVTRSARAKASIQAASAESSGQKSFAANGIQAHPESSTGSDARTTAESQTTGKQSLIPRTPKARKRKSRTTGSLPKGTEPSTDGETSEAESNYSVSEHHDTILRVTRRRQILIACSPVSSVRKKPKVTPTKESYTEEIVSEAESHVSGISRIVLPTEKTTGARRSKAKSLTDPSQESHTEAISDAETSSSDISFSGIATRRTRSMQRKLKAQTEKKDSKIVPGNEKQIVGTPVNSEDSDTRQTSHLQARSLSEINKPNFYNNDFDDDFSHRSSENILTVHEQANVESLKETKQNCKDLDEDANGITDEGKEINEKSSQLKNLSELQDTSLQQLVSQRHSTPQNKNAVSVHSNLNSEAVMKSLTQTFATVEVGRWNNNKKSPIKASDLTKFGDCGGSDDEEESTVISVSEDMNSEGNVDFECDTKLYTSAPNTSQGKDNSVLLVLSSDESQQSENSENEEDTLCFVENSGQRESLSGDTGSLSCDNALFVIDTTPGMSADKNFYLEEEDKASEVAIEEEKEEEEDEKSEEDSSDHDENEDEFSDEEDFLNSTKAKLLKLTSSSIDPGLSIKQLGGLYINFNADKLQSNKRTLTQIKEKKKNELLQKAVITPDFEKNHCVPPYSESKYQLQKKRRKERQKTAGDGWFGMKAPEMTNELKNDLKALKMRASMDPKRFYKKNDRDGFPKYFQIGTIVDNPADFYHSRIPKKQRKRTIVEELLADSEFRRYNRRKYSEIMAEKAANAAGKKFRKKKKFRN
UniProt Q9UDY4: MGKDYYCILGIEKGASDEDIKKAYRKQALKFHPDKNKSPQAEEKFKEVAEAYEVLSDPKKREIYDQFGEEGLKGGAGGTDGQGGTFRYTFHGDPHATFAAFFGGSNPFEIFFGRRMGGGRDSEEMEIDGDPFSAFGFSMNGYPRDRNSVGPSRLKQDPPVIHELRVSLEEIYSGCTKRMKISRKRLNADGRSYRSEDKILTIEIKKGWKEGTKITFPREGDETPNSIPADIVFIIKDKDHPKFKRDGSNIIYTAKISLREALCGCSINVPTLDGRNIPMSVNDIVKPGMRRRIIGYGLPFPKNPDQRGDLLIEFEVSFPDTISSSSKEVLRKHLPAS
UniProt Q9Y2G8: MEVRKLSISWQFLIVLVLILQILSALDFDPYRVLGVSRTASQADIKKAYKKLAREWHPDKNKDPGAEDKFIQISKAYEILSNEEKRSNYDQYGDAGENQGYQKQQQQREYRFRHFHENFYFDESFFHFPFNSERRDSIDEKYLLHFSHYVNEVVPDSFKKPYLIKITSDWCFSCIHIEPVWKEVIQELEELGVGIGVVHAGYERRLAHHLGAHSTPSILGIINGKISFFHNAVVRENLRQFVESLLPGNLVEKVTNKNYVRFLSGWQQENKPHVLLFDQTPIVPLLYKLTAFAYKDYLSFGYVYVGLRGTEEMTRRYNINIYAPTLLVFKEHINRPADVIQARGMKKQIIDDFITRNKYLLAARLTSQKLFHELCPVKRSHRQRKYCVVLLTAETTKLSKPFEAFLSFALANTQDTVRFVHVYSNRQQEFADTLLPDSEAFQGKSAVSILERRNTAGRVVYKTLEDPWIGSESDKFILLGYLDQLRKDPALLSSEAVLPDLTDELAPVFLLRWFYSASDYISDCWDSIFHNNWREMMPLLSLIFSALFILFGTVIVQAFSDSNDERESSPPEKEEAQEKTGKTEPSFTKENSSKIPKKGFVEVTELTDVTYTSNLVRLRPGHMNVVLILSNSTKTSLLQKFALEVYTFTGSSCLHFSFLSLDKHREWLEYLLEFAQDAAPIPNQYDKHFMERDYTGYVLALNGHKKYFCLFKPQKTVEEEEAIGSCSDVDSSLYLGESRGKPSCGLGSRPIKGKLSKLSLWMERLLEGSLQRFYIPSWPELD
UniProt Q9C005, whole entry, looked up: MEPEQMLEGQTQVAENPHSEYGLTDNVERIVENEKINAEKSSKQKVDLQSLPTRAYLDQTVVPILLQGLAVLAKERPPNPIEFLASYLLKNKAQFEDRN
UniProt Q9NZJ0: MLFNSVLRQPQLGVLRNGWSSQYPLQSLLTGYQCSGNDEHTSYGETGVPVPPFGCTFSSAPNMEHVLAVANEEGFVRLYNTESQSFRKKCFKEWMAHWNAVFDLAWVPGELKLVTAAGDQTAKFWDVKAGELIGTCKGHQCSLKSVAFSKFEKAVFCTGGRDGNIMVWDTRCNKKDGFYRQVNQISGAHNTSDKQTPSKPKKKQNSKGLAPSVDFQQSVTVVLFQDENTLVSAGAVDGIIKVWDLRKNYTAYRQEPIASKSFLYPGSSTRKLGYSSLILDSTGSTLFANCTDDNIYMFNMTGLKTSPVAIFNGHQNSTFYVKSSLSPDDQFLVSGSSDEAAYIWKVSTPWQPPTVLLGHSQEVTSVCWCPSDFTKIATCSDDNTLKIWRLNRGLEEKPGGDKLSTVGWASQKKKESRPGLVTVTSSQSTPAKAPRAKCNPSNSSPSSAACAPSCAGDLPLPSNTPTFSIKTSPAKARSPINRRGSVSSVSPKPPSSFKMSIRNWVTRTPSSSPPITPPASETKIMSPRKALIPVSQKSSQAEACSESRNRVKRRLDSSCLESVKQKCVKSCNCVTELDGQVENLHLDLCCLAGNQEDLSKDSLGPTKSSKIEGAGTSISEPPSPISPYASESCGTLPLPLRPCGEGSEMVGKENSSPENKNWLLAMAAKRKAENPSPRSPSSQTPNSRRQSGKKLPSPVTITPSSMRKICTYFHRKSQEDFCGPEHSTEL
UniProt Q9BU89: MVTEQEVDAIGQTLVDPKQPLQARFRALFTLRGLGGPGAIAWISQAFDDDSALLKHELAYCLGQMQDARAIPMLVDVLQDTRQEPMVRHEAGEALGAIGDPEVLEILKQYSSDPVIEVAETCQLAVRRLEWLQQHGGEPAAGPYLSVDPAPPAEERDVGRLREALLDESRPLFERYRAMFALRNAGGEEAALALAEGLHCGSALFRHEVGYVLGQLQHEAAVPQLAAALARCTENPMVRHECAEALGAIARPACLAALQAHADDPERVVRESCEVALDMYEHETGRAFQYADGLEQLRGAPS
UniProt Q99848: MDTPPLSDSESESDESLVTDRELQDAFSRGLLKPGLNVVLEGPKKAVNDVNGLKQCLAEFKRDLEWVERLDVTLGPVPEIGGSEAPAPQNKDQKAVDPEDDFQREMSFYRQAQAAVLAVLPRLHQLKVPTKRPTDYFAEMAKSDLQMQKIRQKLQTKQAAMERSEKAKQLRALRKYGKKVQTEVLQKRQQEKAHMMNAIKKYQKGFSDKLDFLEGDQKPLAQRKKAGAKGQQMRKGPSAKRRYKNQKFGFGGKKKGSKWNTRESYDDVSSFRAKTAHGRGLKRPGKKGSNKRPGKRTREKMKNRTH
UniProt Q9NP97, whole entry, looked up: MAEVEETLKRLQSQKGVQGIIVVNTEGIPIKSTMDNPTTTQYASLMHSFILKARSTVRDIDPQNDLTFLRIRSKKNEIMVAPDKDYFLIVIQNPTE

[2] = compound: CC1=C(SC2=C1C(=N[C@H](C3=NN=C(N32)C)CC(=O)N)C4=CC=C(C=C4)Cl)C
Outline: as §1

[3] = compound: CC1=C2C(=CC=C1)N=C(N(C2=O)C3=CC=CC=C3C)CN4C=NC5=C(N=CN=C54)N
Outline: as §1

[4] = compound: Cc1sc2c(c1C)C(c1ccc(Cl)cc1)=N[C@@H](CC(=O)OC(C)(C)C)c1nnc(C)n1-2
Outline: as §1

[5] = compound: c1ccc([C@@H]2C[C@H]2NC2CCNCC2)cc1
Outline: as §1

Measured: log2 fold change

DYNLL2 (UniProt Q96FJ2)
inactive: [1] 0.086 | [2] 0.182 | [3] 0.142 | [4] -0.171 | [5] -0.069

ECI2 (UniProt O75521)
inactive: [1] -0.047 | [2] 0.052 | [3] 0.027 | [4] -0.041 | [5] 0

DTNBP1 (UniProt Q96EV8)
inactive: [1] -0.033 | [2] 0.031 | [3] 0.02 | [4] 0.001 | [5] 0.013

EDARADD (UniProt Q8WWZ3)
inactive: [1] 0.004 | [2] 0.05 | [3] 0.084 | [4] -0.017 | [5] -0.026

ECH1 (UniProt Q13011)
inactive: [1] -0.072 | [2] 0.161 | [3] 0.086 | [4] -0.114 | [5] -0.046

ECD isoform 3 (UniProt O95905)
inactive: [1] -0.023 | [2] 0.112 | [3] 0.098 | [4] 0.107 | [5] 0.011

DNAJC11 (UniProt Q9NVH1)
inactive: [1] -0.02 | [2] 0.027 | [3] 0.055 | [4] -0.055 | [5] -0.016

Random excerpt: two entries already listed, in no set order.
ECH1 (UniProt Q13011)
inactive: [1] -0.072 | [2] 0.161 | [3] 0.086 | [4] -0.114 | [5] -0.046

DNAJC11 (UniProt Q9NVH1)
inactive: [1] -0.02 | [2] 0.027 | [3] 0.055 | [4] -0.055 | [5] -0.016

(listing goes on)

DNPEP (UniProt Q9ULA0)
inactive: [1] 0.035 | [2] 0.022 | [3] 0.015 | [4] -0.03 | [5] 0.029

DPP7 (UniProt Q9UHL4)
inactive: [1] 0.039 | [2] 0.024 | [3] 0.032 | [4] 0.019 | [5] 0.028

DNAJC3 (UniProt Q13217)
inactive: [1] 0.039 | [2] -0.037 | [3] -0.064 | [4] 0.006 | [5] 0

DNAJC7 (UniProt Q99615)
inactive: [1] -0.045 | [2] 0.043 | [3] 0.072 | [4] -0.013 | [5] 0

DPH5 isoform 5 (UniProt Q9H2P9)
inactive: [1] -0.025 | [2] 0.054 | [3] 0.092 | [4] -0.009 | [5] 0

DYNC1I2 isoform 5 (UniProt Q13409)
inactive: [1] 0.019 | [2] 0.021 | [3] -0.006 | [4] -0.033 | [5] -0.019

DNTTIP2 (UniProt Q5QJE6)
inactive: [1] -0.068 | [2] -0.117 | [3] -0.021 | [4] 0.087 | [5] 0.132

DNAJB4 (UniProt Q9UDY4)
inactive: [1] 0.004 | [2] 0.032 | [3] 0.075 | [4] 0.025 | [5] 0.007

DNAJC2 (UniProt Q99543)
inactive: [1] -0.093 | [2] 0.006 | [3] 0.017 | [4] 0.106 | [5] -0.086

DNAJC16 (UniProt Q9Y2G8)
inactive: [1] 0.246 | [2] -0.041 | [3] -0.007 | [4] 0.118 | [5] -0.032

EAF1 (UniProt Q96JC9)
inactive: [1] 0.064 | [2] -0.091 | [3] -0.059 | [4] 0.119 | [5] 0.129

DPY30 (UniProt Q9C005)
inactive: [1] 0.14 | [2] -0.195 | [3] -0.071 | [4] -0.172 | [5] -0.165

DTL (UniProt Q9NZJ0)
inactive: [1] -0.035 | [2] 0.07 | [3] 0.12 | [4] -0.036 | [5] -0.038

DOHH (UniProt Q9BU89)
inactive: [1] 0.218 | [2] 0.072 | [3] -0.062 | [4] 0.031 | [5] -0.088

EBNA1BP2 (UniProt Q99848)
inactive: [1] 0.118 | [2] -0.378 | [3] -0.269 | [4] 0.306 | [5] -0.045

DYNLRB1 (UniProt Q9NP97)
inactive: [1] -0.006 | [2] 0.178 | [3] 0.037 | [4] -0.113 | [5] 0

EDEM1 (UniProt Q92611)
inactive: [1] 0.006 | [2] 0.068 | [3] 0.017 | [4] -0.105 | [5] -0.074

From the supplement of paper PMC10849652
